From patent publication US6653280B2, “Antifungal polypeptide AlyAFP from Alyssum and methods for controlling plant pathogenic fungi” (Monsanto Technology LLC, priority 1996, dated 2003)

Assay: ELISA of antifungal polypeptide expression in leaves of transgenic potato plants
Set-up: species or system potato (Solanum tuberosum var. Russet Burbank)
Conditions: leaf
Procedure: Leaf samples (20 to 100 mg) were taken from transgenic plants grown to 1 to 2 inches in height. The leaf samples were ground in PBST buffer (15 μl/mg tissue) containing 1 mM KH2PO4, 10 mM Na2HPO4, 137 mM NaCl, 2.7 mM KCl, pH 7.4, and 0.05% Tween-20, and allowed to sit at 4° C. overnight. After centrifugation, 100 μl of the supernatant were used in an ELISA assay. Polyclonal antibodies against Rs-AFP1 polypeptide (SEQ ID NO:18) were prepared by Pocono Rabbit Farm (Pocono, Pa.). Wells of a Nunc Maxi-sorp 96 well plate (Nunc #4-39454) were coated with antibodies against Rs-AFP1 polypeptide by adding 100 μl of antibodies (1 mg IgG/ml) diluted 1:200 in coating buffer containing 1.59 g Na2CO3 and 2.93 g NaHCO3 per liter distilled water, pH 9.6, and incubating at 4° C. overnight. The coating solution was then removed from the wells, which were then washed three times with PBST. One hundred μl of leaf supernatant or appropriately diluted polypeptide standards in PBST supplemented with 0.2% (w/v) BSA, fraction V (Sigma, St. Louis) were added to the wells. The concentration of each polypeptide in extracts from transgenic plants was determined from standard curves constructed using varying amounts of the respective purified polypeptide. AlyAFP, Rs-AFP1, and Rs-AFP2 cross-reacted with the polyclonal antibody preparation. After overnight incubation at 4° C., the solutions were removed from the wells, and the wells were washed three times with PBST. One hundred μl of a 1:1000 dilution in PBST of a 0.5 mg/ml Rs-AFP1 antibody/alkaline phosphatase conjugate prepared according to Boorsma et al. ((1975) J. Histochem. Cytochem. 23: 200-207) were added to each well. The plate was incubated at 22° C. for 4 hours, and the wells were then washed five times with PBST. One hundred μl of a freshly prepared solution of p-nitrophenyl phosphate (1 mg/ml) (Sigma Chemical Co., St. Louis, Mo.) dissolved in 200 mM Tris buffer, pH 9, were added to each well, and the plate was incubated at 22° C. for 1 hour. The optical density at 405 nm was determined using a Thermo-max microplate reader (Molecular Devices, Menlo Park, Calif.). Plants expressing different levels of antifungal polypeptides were used for subsequent disease tests.

## AlyAFP: antifungal polypeptide of 50 amino acids obtainable from flowers of Alyssum, SEQ ID NO:2 (RLCERPSGTWSGVCGNNNACRNQCRNLERAEHGSCNYVFPAHKCICYFPC)
Potato line 17575
  Protein Expression (μg AFP/g tissue): 14.9 μg AFP/g tissue
Potato line 17578
  Protein Expression (μg AFP/g tissue): 12.7 μg AFP/g tissue
Potato line 17580
  Protein Expression (μg AFP/g tissue): 0.9 μg AFP/g tissue
Potato line 17581
  Protein Expression (μg AFP/g tissue): 9.2 μg AFP/g tissue
Potato line 17587
  Protein Expression (μg AFP/g tissue): 9.6 μg AFP/g tissue
Potato line 17589
  Protein Expression (μg AFP/g tissue): 1.1 μg AFP/g tissue
Potato line 17592
  Protein Expression (μg AFP/g tissue): 2.6 μg AFP/g tissue
Potato line 17593
  Protein Expression (μg AFP/g tissue): 2.6 μg AFP/g tissue
Potato line 17595
  Protein Expression (μg AFP/g tissue): 5.2 μg AFP/g tissue
Potato line 17618
  Protein Expression (μg AFP/g tissue): 2.6 μg AFP/g tissue

## Rs-AFP1: small cysteine-rich antifungal protein isolated from radish seed (WO 93/05153), SEQ ID NO:18 (QKLCERPSGTWSGVCGNNNACKNQCINLEKARHGSCNYVFPAHKCICYFPC)
Potato line 15117
  Protein Expression (μg AFP/g tissue): 9.7 μg AFP/g tissue
Potato line 15120
  Protein Expression (μg AFP/g tissue): 8.0 μg AFP/g tissue
Potato line 15124
  Protein Expression (μg AFP/g tissue): 26 μg AFP/g tissue
Potato line 15143
  Protein Expression (μg AFP/g tissue): 18.3 μg AFP/g tissue
Potato line 15154
  Protein Expression (μg AFP/g tissue): 5.2 μg AFP/g tissue

## Rs-AFP2: small cysteine-rich antifungal protein isolated from radish seed (WO 93/05153), SEQ ID NO:19 (QKLCQRPSGTWSGVCGNNNACKNQCIRLEKARHGSCNYVFPAHKCICYFPC)
Potato line 13500
  Protein Expression (μg AFP/g tissue): 10.8 μg AFP/g tissue
Potato line 13501
  Protein Expression (μg AFP/g tissue): 25.2 μg AFP/g tissue
Potato line 13503
  Protein Expression (μg AFP/g tissue): 25.1 μg AFP/g tissue
Potato line 13531
  Protein Expression (μg AFP/g tissue): 16.2 μg AFP/g tissue
Potato line 13532
  Protein Expression (μg AFP/g tissue): 17.5 μg AFP/g tissue
